In all, about 320,000 compounds went through this assay and about 22,000 (6.9%) were called active. The inconclusive results got no clear call from the source; some entries with a clear call stand among them for comparison. Calls follow the shape of the dose curve; as a rule, active = well fitted inhibition curve with a large enough effect; inconclusive = small, poorly fitted or top-dose-only effect, or another doubt; inactive = no such curve, though single readings can be large or run the other way. Where the call is inconclusive, the potency comes from a doubtful curve fit.
experiment: Primary qHTS for delayed death inhibitors of the malarial parasite plastid, 96 hour incubation; conditions: P. falciparum luciferase reporter growth; series mostly up to 28.7 µM; activity change, negative = inhibition: at the top concentration
Method in brief: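 Two parasite generations (96 h, 37 C, 5% CO2) of compound exposure in infected erythrocytes (0.05% parasitemia, 2% hematocrit). Luciferase-reporter P. falciparum; decreased luminescence indicates inhibited growth, aimed at apicoplast-acting delayed death.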
% is scaled to controls: 0 for no effect and ±100 for the full control effect; potency is read from the fitted curve at half-maximal effect.

| SMILES | Potency | activity change, negative = inhibition |
| --- | --- | --- |
| COC(=O)[C@@]1(Cc2ccc(F)cc2)[C@H]2c3cc(C(=O)N(C)C)n(Cc4nc5ccccc5[nH]4)c3C[C@H]2CN1C(=O)c1ccccc1 | active: 3.7 µM | – |
| CC(Sc1nc(N)cc(=O)[nH]1)C(=O)Nc1sc2c(c1C#N)CCCC2 (stereo unspecified) | inconclusive: 11.7 µM [inhibitor, single point] | – |
| CC(=O)NCCC(=O)Nc1ncc(S(=O)(=O)c2ccc([N+](=O)[O-])cc2)s1 | inconclusive: 2.62 µM [inhibitor, partial curve] | – |
| O=c1[nH]cc(I)cc1I | – | inactive: 4.42% |
| Cc1nnc(NC(=O)CSc2cn(Cc3ccccc3)c3ccccc23)s1 | inconclusive: 10.4 µM [inhibitor, partial curve, poor fit] | – |
| COC(=O)c1ccc(-c2noc(CN3C[C@H]4CC[C@H]3C4)n2)cc1 | inconclusive: 10.4 µM [inhibitor, single point] | – |
| CCCCCC(=O)NNC(=S)NC(=O)c1ccccc1[N+](=O)[O-] | inconclusive: 10.4 µM [inhibitor, partial curve, poor fit] | – |
| COc1ccc(N2CCN(C(=O)c3cc(-c4cccs4)nc4ccccc34)CC2)cc1 | inconclusive: 5.22 µM [inhibitor, single point] | – |
| COc1cc(C=O)ccc1OCc1ccncc1 | inconclusive: 1.65 µM [inhibitor, full curve] | – |
| COc1ccccc1C(CNC(=O)c1cccc(NS(=O)(=O)c2ccc(C)c(F)c2)c1)N1CCCC1 (stereo unspecified) | active: 11.7 µM | – |
| CCOC(=O)c1c(/N=C/C2=C(O)CCCC2=O)sc2c1CCCC2 | inconclusive: 0.0033 µM [inhibitor, full curve, poor fit] | – |
| CCOc1ccc(N2C(=O)S/C(=C\c3cc(OC)c(OC)c(OC)c3)C2=O)cc1 | – | inactive: 0.548% |
| Cc1ccc(NC(=S)N(CCN(C)C)C(C)c2ccco2)cc1C (stereo unspecified) | inconclusive: 1.31 µM [inhibitor, partial curve, poor fit] | – |
| Cc1ccc(CNC(=O)COc2cc(O)c3c(c2)OC(C)(C)CC3=O)cc1 | inconclusive: 18.5 µM [inhibitor, single point] | – |
| COc1ccc(-n2c(SCC(=O)NNC(=O)c3ccccc3C)nnc2-c2ccncc2)cc1 | – | inactive: -4.15% |
| CCc1nc2ccc(C)cc2c(C(=O)Oc2cccc3cccnc23)c1C | – | inactive: -20.8% |
| CCN(CC)C(=O)Oc1nnc(SC(C)C)n1-c1ccc(Cl)cc1 | inconclusive: 18.5 µM [inhibitor, single point] | – |
| CC(CCc1ccccc1)NC(=O)c1ccc(NC(=O)c2ccccc2)cc1 (stereo unspecified) | – | inactive: -12.9% |
| CN1CCN(c2ccc(CNS(=O)(=O)c3cccc(F)c3)cc2)CC1 | – | inactive: 22.5% |
| O=C(/C=C/c1cccc(OCc2ccccc2)c1)c1cccnc1 | – | inactive: 166% |
| NS(=O)(=O)c1ccc(NS(=O)(=O)c2ccc(C3CNC(=O)C3)cc2)cc1 (stereo unspecified) | – | inactive: -8.24% |
| CCN1C(=NCCCOC(C)C)N[C@@H](CCc2ccccc2)[C@H](C(=O)NCCCOC(C)C)[C@H]1C | active: 4.65 µM | – |
| COC(=O)C1=C(C)N(Cc2ccc(OC)cc2)C(=O)C1 | inconclusive: 10.4 µM [inhibitor, single point] | – |

3 compounds already listed, ordered by heavy-atom count, largest number first:

| SMILES | Potency | activity change, negative = inhibition |
| --- | --- | --- |
| CCOc1ccc(N2C(=O)S/C(=C\c3cc(OC)c(OC)c(OC)c3)C2=O)cc1 | – | inactive: 0.548% |
| CC(CCc1ccccc1)NC(=O)c1ccc(NC(=O)c2ccccc2)cc1 (stereo unspecified) | – | inactive: -12.9% |
| CC(Sc1nc(N)cc(=O)[nH]1)C(=O)Nc1sc2c(c1C#N)CCCC2 (stereo unspecified) | inconclusive: 11.7 µM [inhibitor, single point] | – |

The results go on:

| SMILES | Potency | activity change, negative = inhibition |
| --- | --- | --- |
| CCOC(=O)C1=C(N)Oc2cc(C)n(CCc3ccc(OC)c(OC)c3)c(=O)c2C1c1cccnc1 (stereo unspecified) | active: 10.4 µM | – |
| COc1ccc(C(=O)C2CCCN(C(=O)Cn3ccc(C)n3)C2)cc1OC (stereo unspecified) | inconclusive: 18.5 µM [inhibitor, single point] | – |
| Cc1cccc2c1c1ccc3c(c1n2C)C(=O)C=CC3=O | inconclusive: 6.57 µM [inhibitor, partial curve, poor fit] | – |
| CC(=O)C1=C(c2ccccc2)NC(=O)NC1c1ccccc1OCC(=O)NCc1ccccc1 (stereo unspecified) | inconclusive: 8.28 µM [inhibitor, partial curve] | – |
| CCN(CC)S(=O)(=O)c1ccc(C)c(NC(=S)N2CCN(C/C=C/c3ccccc3)CC2)c1 | inconclusive: 11.7 µM [inhibitor, single point] | – |
| COc1ccc(Br)cc1CNC(=O)CCCc1cn(C)c2ccccc12 | active: 11.7 µM | – |
| O=C(NC1CCCC1)C(NS(=O)(=O)c1cccc2nsnc12)c1ccccc1 (stereo unspecified) | inconclusive: 11.7 µM [inhibitor, single point] | – |
| COc1ccc(C2Nc3ccccc3C(=O)N2Cc2ccco2)cc1COc1ccc(F)cc1 (stereo unspecified) | active: 6.57 µM | – |
| Cn1c2ccccc2c(=O)c2ccc(-c3ccc4c(c3)OCO4)cc21 | active: 9.28 µM | – |
| COc1ccc(NC(=O)c2cc(-c3ccncc3)nc3ccc(Br)cc23)cc1OC | – | inactive: 31.3% |
| O=C(Nc1ccccc1Oc1ccsc1C(=O)O)c1ccccc1F | – | inactive: -0.249% |
| COc1cc(CN2CCNC(=O)C2CC(=O)NCc2csc(C(C)C)n2)cc(OC)c1 (stereo unspecified) | – | inactive: 26.3% |
| C=CCNCCOCCOc1ccc(C)cc1Br | – | inactive: 3.23% |
| COc1ccc(CCNCc2cccn2C)cc1 | active: 1.47 µM | – |
| COc1cccc(C(=O)Nc2ccccc2F)c1 | – | inactive: 31.9% |
| O=C(NCc1n[nH]c(=S)n1-c1ccc(Br)cc1)c1cccs1 | – | inactive: 3.3% |
| O=C(NC(=O)c1c(F)cccc1F)Nc1cc(Cl)c(OC(F)(F)C(F)C(F)(F)F)cc1Cl (stereo unspecified) | inconclusive: 19 µM [inhibitor, single point] | – |
| CCn1cc([N+](=O)[O-])c(C(=O)Nc2ccn(C34CC5CC(CC(C5)C3)C4)n2)n1 | – | inactive: -1.24% |
| Cc1ccc(-n2c(C)cc(-c3csc(N)n3)c2C)cc1 | inconclusive: 6.57 µM [inhibitor, partial curve, poor fit] | – |
| COc1cccc(-n2c(N)cc(=O)nc2SCC(=O)Nc2cc(C)on2)c1 | inconclusive: 1.65 µM [inhibitor, full curve] | – |
| CC1CCCCC1NC(=O)c1ccc(S(=O)(=O)N2CCCC2)cc1 (stereo unspecified) | inconclusive: 8.28 µM [inhibitor, partial curve, poor fit] | – |
| COC(=O)N(c1ccc(OC)cc1)P1(=S)OCCC(C)O1 (stereo unspecified) | inconclusive: 4.15 µM [inhibitor, partial curve, poor fit] | – |
| C=Cn1cc[n+](CC(=O)c2ccc(-c3ccccc3)cc2)c1 | inconclusive: 18.5 µM [inhibitor, single point] | – |

From PubChem BioAssay AID504834 (National Center for Advancing Translational Sciences (NCATS), 2011)
